These are yes or no findings as the source states them, for the method shown. In cells and extracts the contact can be indirect. Some entries that bind do so weakly or less than the wild type.
Legend:
Assay in all cases: co-IP
[1] = biological target: C-terminal Myc-FLAG tagged PRR14L (human) (UniProt Q5THK1)
[2] = biological target: PRR14L-2067/8EE>AA (human) (UniProt Q5THK1)
PRR14L-Q314X (human) = biological target: T1, PRR14L-Q314X (human) (UniProt Q5THK1)
T1 sequence: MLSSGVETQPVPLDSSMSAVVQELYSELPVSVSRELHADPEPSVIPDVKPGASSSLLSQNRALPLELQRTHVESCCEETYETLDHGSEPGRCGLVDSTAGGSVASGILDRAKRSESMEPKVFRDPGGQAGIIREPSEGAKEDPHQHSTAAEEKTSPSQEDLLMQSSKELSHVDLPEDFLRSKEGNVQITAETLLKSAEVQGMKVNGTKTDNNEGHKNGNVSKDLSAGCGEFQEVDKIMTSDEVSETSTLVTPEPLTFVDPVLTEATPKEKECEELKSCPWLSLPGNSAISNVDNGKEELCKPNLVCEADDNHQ

The chains behind the UniProt entries cited, without tags or fusion partners. Where a name states a change or a piece, a line headed by the entry shows the natural chain unless it says otherwise.
UniProt Q15172, whole entry: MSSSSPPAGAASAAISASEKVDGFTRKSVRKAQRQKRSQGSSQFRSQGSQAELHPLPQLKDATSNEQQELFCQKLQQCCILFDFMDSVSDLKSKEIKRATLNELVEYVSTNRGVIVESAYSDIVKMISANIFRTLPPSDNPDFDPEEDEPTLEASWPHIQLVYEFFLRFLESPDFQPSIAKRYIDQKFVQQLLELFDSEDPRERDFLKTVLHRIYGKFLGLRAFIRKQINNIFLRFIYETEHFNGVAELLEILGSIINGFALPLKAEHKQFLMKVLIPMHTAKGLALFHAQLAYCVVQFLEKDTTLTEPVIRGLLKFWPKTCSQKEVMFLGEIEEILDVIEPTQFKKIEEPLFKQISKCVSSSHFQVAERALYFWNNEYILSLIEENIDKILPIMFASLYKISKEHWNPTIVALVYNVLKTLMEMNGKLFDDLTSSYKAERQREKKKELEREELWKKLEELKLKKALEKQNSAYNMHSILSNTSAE
UniProt Q92560, whole entry: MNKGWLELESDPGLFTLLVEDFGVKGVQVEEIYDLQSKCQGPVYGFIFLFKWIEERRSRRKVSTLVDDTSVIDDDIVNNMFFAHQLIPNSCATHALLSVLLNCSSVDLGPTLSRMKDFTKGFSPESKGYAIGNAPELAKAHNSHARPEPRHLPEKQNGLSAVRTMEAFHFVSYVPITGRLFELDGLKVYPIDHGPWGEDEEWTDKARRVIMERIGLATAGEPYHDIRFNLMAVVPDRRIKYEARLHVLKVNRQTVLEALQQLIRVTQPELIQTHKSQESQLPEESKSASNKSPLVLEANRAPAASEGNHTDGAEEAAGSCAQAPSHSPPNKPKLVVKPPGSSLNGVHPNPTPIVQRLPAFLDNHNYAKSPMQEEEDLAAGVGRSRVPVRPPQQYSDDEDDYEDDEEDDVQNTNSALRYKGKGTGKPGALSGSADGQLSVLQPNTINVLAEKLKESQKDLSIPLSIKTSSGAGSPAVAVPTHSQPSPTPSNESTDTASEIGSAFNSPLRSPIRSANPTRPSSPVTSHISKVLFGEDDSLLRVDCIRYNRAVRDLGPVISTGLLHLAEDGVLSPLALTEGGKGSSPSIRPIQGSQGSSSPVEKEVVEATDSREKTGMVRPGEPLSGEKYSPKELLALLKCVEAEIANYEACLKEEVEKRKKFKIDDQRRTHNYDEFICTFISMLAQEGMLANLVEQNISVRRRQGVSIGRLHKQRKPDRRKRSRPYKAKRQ

PRR14L-R1833X (human) = PRR14L-R1833X (human) (UniProt Q5THK1)
PRR14L-TANT (human) = biological target: T2, PRR14L-TANT (human) (UniProt Q5THK1)
T2 sequence: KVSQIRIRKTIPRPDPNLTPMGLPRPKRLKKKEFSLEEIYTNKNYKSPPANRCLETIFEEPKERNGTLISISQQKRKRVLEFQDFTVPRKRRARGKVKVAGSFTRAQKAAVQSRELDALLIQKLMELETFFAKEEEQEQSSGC

Substance	binding [1]	binding [2]	binding (PRR14L-Q314X (human))	binding (PRR14L-R1833X (human))	binding (PRR14L-TANT (human))
HA-tagged B56α (V245 pCEP-4HA B56α) (from UniProt Q15172 1-486)	binds	no binding	no binding	no binding	binds
HA-tagged BAP1 (from UniProt Q92560 1-729)		binds	no binding	binds	binds
HA-tagged CIT (Citron Rho-Interacting Serine/Threonine Kinase) (from UniProt O14578-4 1-2069)	no binding				

Source: article doi:10.1101/2023.04.29.538809
